Several values for one entry are separate records, joined by “and”; a condition that tells them apart may be missing. Equal values may be shown once. Hit rate of the full screen: of about 400,000 compounds, about 13,000 (3.2%) were called active. The inconclusive results got no clear call from the source; some entries with a clear call stand among them for comparison. Calls come from the whole dose curve; as a rule, active = well fitted cell-killing curve with a large enough effect; inconclusive = small, poorly fitted or top-dose-only effect, or effect the other way; inactive = flat fitted curve, though single readings scatter. Where the call is inconclusive, the potency comes from a doubtful curve fit.
Assay: qHTS assay for MDR1-selective chemotherapeutics: Primary screen using the drug-selected MDR subline cells KB-V1; note: nearly all actives have a fitted effect of over 60% in size
Conditions: KB-V1 MDR cells viability, CellTiter-Glo, 72 h; activity change, negative = cytotoxicity: at 46.1 µM (top of the series)
Method in brief: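 Compound-treated KB-V1 multidrug-resistant cells, 72 h, 37 degrees C; viability by CellTiter-Glo. Fitted qHTS curves give the values.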
% is set by controls: 0 for no effect and ±100 for the full control effect; potency is the fitted concentration of half-maximal effect.

Structure (SMILES) | activity change, negative = cytotoxicity | Potency
CC(C)(C)C(=O)N1Cc2ccccc2-n2nncc2C1 | inactive: 13.9% | –
CCN(CC)c1ccc(CN2CC=C(c3ccc(F)cc3)CC2)cc1 | inactive: 0% | –
Clc1ccc(COC(Cn2ccnc2)c2ccc(Cl)cc2Cl)c(Cl)c1 (stereo not drawn) | – | inconclusive: 16.4 µM [cytotoxic, single point] and inconclusive: 20.6 µM [cytotoxic, single point]
c1ccc(N2C3C4CC(C5CCCC54)C32)cc1 (stereo not drawn) | – | inconclusive: 11.6 µM [rising, partial curve, poor fit]
Cc1cc(OCC(=O)N2CCCN(C)CC2)ccc1Cl | inactive: -16.2% | –
COC(=O)C1=C(c2cccc(OC)c2OC)C[C@@H]2CC[C@H]1N2C(=O)NCCNC(C)=O | – | inconclusive: 29.1 µM [rising, single point]
CCN(CC)P(=O)(NC(=O)C(Cl)(Cl)Cl)N(CC)CC.[Cl-].[Cl-].[Cl-].[Nd+3] | – | inconclusive: 20.6 µM [cytotoxic, single point]
COC(=O)C1=C(c2ccc(F)cc2OCc2ccccc2)C[C@@H]2CC[C@H]1N2C(=O)NCc1ccc([N+](=O)[O-])cc1 | inactive: -10.4% | –
COc1cc2oc(=O)c(CC(=O)N3C[C@H]4C[C@@H](C3)c3cccc(=O)n3C4)c(C)c2cc1Cl | inactive: -20.8% | –
COc1ccc(N2C(=O)C(=O)N(c3ccc(OC)cc3)P2(=O)N(CCCl)CCCl)cc1 | inactive: 17.2% | –
CCOc1cc(-c2nc3c(C)cccn3c2NCC2CCCO2)ccc1O (stereo not drawn) | – | active: 5.17 µM
N#Cc1c(Br)n(C2OC(CO)C(O)C2O)c2ncnc(N)c12 (stereo not drawn) | – | inconclusive: 0.92 µM [cytotoxic, full curve, poor fit]
CCC(=NCCc1ccccc1)c1c(O)n(C2CCCCC2)c(=O)[nH]c1=O | – | inconclusive: 16.4 µM [cytotoxic, single point]
O=c1c2ccccc2nc(/C=C/c2ccccc2)n1-c1ccccc1O | inactive: 1.9% | –
O=c1[nH]c(=S)[nH]c(O)c1/C=C1/C=c2ccccc2=N1 | inactive: -9.02% | –
C1=NCCCN2CCCCC12 (stereo not drawn) | inactive: 17.4% | –
COC(=O)C1=C(c2ccc3ccccc3c2)C[C@@H]2CC[C@H]1N2C(=O)NC1Cc2ccccc2C1 | – | inconclusive: 29.1 µM [cytotoxic, single point]
C[C@]12CC[C@@H](O)CC1=CCC1C2CC[C@@]2(C)C1CC[C@@H]2N (stereo partly drawn) | inactive: 16.1% | –
CCCCOC(=O)c1ccccc1N | inactive: -2.67% | –
CN1CCN(c2c(F)cc([N+](=O)[O-])c(N)c2Br)CC1 | – | inconclusive: 16.4 µM [cytotoxic, single point]
CN(C)c1ccc([P+](=O)c2ccc(N(C)C)cc2)cc1 | – | inconclusive: 20.6 µM [cytotoxic, single point]
O=C1NC(c2cc3ccccc3nc2Cl)Nc2ccccc21 (stereo not drawn) | – | inconclusive: 29.1 µM [cytotoxic, single point]
COCOC1CCC2C3CCC4=CC(=O)CCC4=C3C=CC12C (stereo not drawn) | – | inconclusive: 23.1 µM [cytotoxic, single point]
O=C(CF)N(O)c1ccc(C=Cc2ccccc2)cc1 | inactive: -24.6% | –
O=C1C=C(N2CC2)c2ccccc2C1=O | inactive: 0.812% | –

Structure (SMILES) | activity change, negative = cytotoxicity | Potency
COc1cc(C(=O)Nc2ccc(Br)cc2C(=O)c2ccccc2Cl)cc(OC)c1OC | – | inconclusive: 5.17 µM [cytotoxic, full curve]
CC1=CC(C)CC(C)OC(=O)CC(c2ccc(O)cc2)NC(=O)C(Cc2c(Br)[nH]c3ccccc23)N(C)C(=O)C(C)NC(=O)C(C)C1 (stereo not drawn) | – | active: 1.64 µM
CNC(=S)NC1CC2CCCC(C1)N2CC(C)C (stereo not drawn) | inactive: 5.29% | –
Clc1ccccc1CNC1CN2CCC1CC2 (stereo not drawn) | inactive: -22.3% | –
O=S1(=O)N(CCN2CC=C(c3c[nH]c4cc(F)ccc34)CC2)c2cccc3c2N1CCC3 | – | inconclusive: 10.3 µM [cytotoxic, partial curve]
Cc1cc(C)c(C)c(C(O)(C(=O)O)c2ccccc2)c1 (stereo not drawn) | inactive: 5.71% | –
O=c1cccc2n1CC1CC2CN(Cc2cccc(Cl)c2Cl)C1 (stereo not drawn) | – | active: 18.4 µM
CC(=O)N1CC(=O)Nc2ccc(Cl)cc2C1c1ccc(F)cc1 (stereo not drawn) | – | inconclusive: 18.4 µM [cytotoxic, partial curve]
O=C1NC(=O)N(c2ccc(F)cc2)C(=O)/C1=C/c1ccc2c(c1)CCCN2Cc1ccccc1 | – | inconclusive: 20.6 µM [cytotoxic, single point]
CCOC(=O)[C@]12Cc3cc(OC)ccc3[C@H]1N(CCC(=O)OC)C(=O)c1cc(OC)ccc12 | – | inconclusive: 23.1 µM [cytotoxic, single point]
Cc1ncoc1C(=O)NCC1=C(c2cccc3ccccc23)C[C@@H]2CC[C@H]1N2Cc1ccco1 | inactive: 0.247% | –
COC1=CC=C2[C@H]3Cc4ccc(OC)c5c4[C@@]2(CCN3C)C1O5 (stereo partly drawn) | – | inconclusive: 13 µM [cytotoxic, partial curve]
Oc1ccc(Br)cc1CN1CCN(c2ccccc2)CC1 | – | active: 16.4 µM
Cc1cc(Cl)ccc1C(=O)C1CCCN(Cc2ccon2)C1 (stereo not drawn) | – | active: 16.4 µM
O=C1CC(N2CCC(n3c(=O)[nH]c4ccccc43)CC2)C(=O)N1Cc1ccccc1 (stereo not drawn) | – | inconclusive: 32.6 µM [cytotoxic, single point]
CCOc1cccc(CNCCc2c(C)[nH]c3ccc(OC(F)(F)F)cc23)c1O | – | active: 23.1 µM
COc1ccccc1N1CCN(Cc2ccccc2Cl)CC1 | – | active: 20.6 µM
O=P1(NCCCn2cc[n+](Cc3nc4ccccc4[nH]3)c2)C=C(c2ccccc2)OC(c2ccccc2)=C1 | – | inconclusive: 20.6 µM [rising, partial curve, poor fit]
O=[N+]([O-])c1ccc(O)c([N+](=O)[O-])c1 | – | inconclusive: 18.4 µM [cytotoxic, single point]
Cc1cccc(-n2c(O)c(C=NCCN3CCCCC3)c(=O)[nH]c2=O)c1 | inactive: 15.3% | –
C[C@H]1CCCC=CC2C[C@H](O)C[C@@H]2[C@H](O)C=CC(=O)O1 (stereo partly drawn) | – | active: 0.0184 µM
O=C(O)C(Br)CBr (stereo not drawn) | inactive: 9.26% | –
CCOC(=O)C(O)(c1ccc(NC(=S)NC(=O)c2ccc(Cl)cc2Cl)c(C)c1)C(F)(F)F (stereo not drawn) | – | inconclusive: 29.1 µM [cytotoxic, single point]
COc1ccc(N2C(=O)/C(=C/c3ccc(N(C)C)o3)C(=O)NC2=S)cc1 | inactive: -15% | –
C[C@]12CCC3=C4CCC(=O)C=C4CC[C@H]3C1CC[C@@H]2O (stereo partly drawn) | – | active: 3.66 µM

Given with each value named: 4 of the compounds above.
CCOC(=O)[C@]12Cc3cc(OC)ccc3[C@H]1N(CCC(=O)OC)C(=O)c1cc(OC)ccc12
  Potency: inconclusive: 23.1 µM [cytotoxic, single point]
Cc1ncoc1C(=O)NCC1=C(c2cccc3ccccc23)C[C@@H]2CC[C@H]1N2Cc1ccco1
  activity change, negative = cytotoxicity: inactive: 0.247%
COC1=CC=C2[C@H]3Cc4ccc(OC)c5c4[C@@]2(CCN3C)C1O5 (stereo partly drawn)
  Potency: inconclusive: 13 µM [cytotoxic, partial curve]
Oc1ccc(Br)cc1CN1CCN(c2ccccc2)CC1
  Potency: active: 16.4 µM

(cont.)

Structure (SMILES) | activity change, negative = cytotoxicity | Potency
Cc1cc(C)c(-n2c(O)c(/C=N/NC(=O)c3ccncc3)c(=O)[nH]c2=O)c(C)c1 | – | inconclusive: 29.1 µM [rising, single point]
CCC(C(=O)Nc1ccc(Cl)cc1)N1CCCC1=O (stereo not drawn) | inactive: 14.7% | –
O=C(/C=C/c1ccc2c(c1)OCO2)c1c(O)n(CCc2ccccc2)c(=O)[nH]c1=O | – | active: 13 µM
O=C1CC(=O)N(Cc2ccccc2)C(=O)N1Cc1ccccc1 | – | inconclusive: 18.4 µM [cytotoxic, single point]
CN(C)CCOC(=O)c1cn(Cc2ccccc2)c2ccccc12 | – | inconclusive: 29.1 µM [cytotoxic, single point]
CCN1C(=O)CC(=O)N(CC)C1=S | – | inconclusive: 4.61 µM [rising, partial curve, poor fit]
COC(=O)C[C@H]1CC[C@H]2NC[C@@H](O)COC[C@@H]2O1 | – | inconclusive: 0.184 µM [rising, full curve]
COc1ccc(C(O)(c2ccccc2)c2ccncc2)cc1 (stereo not drawn) | – | inconclusive: 14.6 µM [cytotoxic, single point]
CN(Cc1cccc(-c2ccncc2)c1)C(=O)Oc1ccc([N+](=O)[O-])cc1 | – | inconclusive: 0.116 µM [cytotoxic, full curve, poor fit]
CCOc1ccc(C2CC(c3c(O)n(C)c(=O)n(C)c3=O)=NN2)cc1 (stereo not drawn) | – | inconclusive: 20.6 µM [cytotoxic, single point]
CCOP(=O)(NC(C)C)Oc1ccc(SC)c(C)c1 (stereo not drawn) | inactive: -4.91% | –
CC(C)c1cccc(C(C)C)c1OCCn1ccnc1 | – | active: 23.1 µM
O=C(CCl)NCC1CCCO1 (stereo not drawn) | – | inconclusive: 18.4 µM [cytotoxic, single point]
COc1ccc(C(=O)C2CCCN(C3CSCCSC3)C2)c(C)c1 (stereo not drawn) | inactive: 0% | –
CCCCCn1c(=O)c(C(=O)Nc2nc3ccccc3[nH]2)c(O)c2ccccc21 | – | inconclusive: 2.31 µM [cytotoxic, full curve, poor fit]
COC(=O)C1=C(c2cccc(OCc3ccccc3)c2)C[C@@H]2CC[C@H]1N2C(=O)NCc1cccc(F)c1 | – | inconclusive: 29.1 µM [cytotoxic, single point]
N/C(=N\N=C/c1ccc(-c2ccc(O)c(C(=O)O)c2)o1)N[N+](=O)[O-] | – | inconclusive: 25.1 µM [cytotoxic, single point]
CCCCP(=O)(O)c1ccccc1 | inactive: -1.85% | –
COc1ccc(CCC(C)NCCc2ccccc2)cc1 (stereo not drawn) | – | inconclusive: 29.1 µM [cytotoxic, single point]
COC(=O)C1=C(c2cccc(OCc3ccccc3)c2)C[C@@H]2CC[C@H]1N2C(=O)NCc1ccc(OC)cc1 | – | inconclusive: 29.1 µM [cytotoxic, single point]
Cc1ccc(-n2nc(C)c3c2NC(=O)CSC3c2ccc3c(c2)OCO3)cc1 (stereo not drawn) | – | inconclusive: 18.4 µM [cytotoxic, partial curve, poor fit]
CCC(=NCCC(c1ccccc1)c1ccccc1)c1c(O)n(C)c(=O)n(C)c1=O | – | inconclusive: 29.1 µM [cytotoxic, single point]
CCC(=O)OC(Cc1ccccc1)(c1ccccc1)C(C)CN(C)C (stereo not drawn) | – | inconclusive: 23.1 µM [cytotoxic, single point]

From PubChem BioAssay AID1347076 (National Center for Advancing Translational Sciences (NCATS), 2019)
